Experimental findings from publication PMC12488962 are described below.

Protein sequences, listed by entry. Tags and fused reporters are not part of them.
UniProt P15307: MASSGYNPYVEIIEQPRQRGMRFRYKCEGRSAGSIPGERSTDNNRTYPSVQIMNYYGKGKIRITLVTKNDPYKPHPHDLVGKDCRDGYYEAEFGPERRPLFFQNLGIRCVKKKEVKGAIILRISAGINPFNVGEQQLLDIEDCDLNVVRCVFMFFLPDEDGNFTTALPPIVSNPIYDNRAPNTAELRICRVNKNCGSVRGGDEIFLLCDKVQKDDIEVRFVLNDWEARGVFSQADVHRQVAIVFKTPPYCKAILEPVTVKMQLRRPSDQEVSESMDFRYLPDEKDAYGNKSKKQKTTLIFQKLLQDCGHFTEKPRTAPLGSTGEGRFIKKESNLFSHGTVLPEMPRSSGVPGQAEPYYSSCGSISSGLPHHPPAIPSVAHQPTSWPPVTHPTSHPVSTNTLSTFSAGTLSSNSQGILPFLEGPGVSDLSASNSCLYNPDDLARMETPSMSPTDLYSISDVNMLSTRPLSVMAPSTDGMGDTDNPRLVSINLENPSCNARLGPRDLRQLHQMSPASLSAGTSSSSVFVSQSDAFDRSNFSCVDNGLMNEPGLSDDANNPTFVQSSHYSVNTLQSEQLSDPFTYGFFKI

The test deals with T1, His-Slc17a5 (sialin), stably overexpressed in Raw264.7 macrophages (mouse) (UniProt Q8BN82).
T1 sequence: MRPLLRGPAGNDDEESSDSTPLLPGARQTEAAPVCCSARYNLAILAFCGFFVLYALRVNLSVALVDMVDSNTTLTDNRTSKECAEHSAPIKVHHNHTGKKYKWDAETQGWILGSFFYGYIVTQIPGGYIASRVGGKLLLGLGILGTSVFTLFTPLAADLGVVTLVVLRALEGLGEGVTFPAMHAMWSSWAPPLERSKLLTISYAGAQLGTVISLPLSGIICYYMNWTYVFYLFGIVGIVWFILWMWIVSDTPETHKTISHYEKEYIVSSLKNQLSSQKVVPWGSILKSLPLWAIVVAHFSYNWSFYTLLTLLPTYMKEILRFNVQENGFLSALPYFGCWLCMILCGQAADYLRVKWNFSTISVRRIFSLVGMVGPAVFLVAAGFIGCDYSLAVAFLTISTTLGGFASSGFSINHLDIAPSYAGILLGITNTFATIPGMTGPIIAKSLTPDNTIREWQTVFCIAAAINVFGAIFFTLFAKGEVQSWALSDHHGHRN
Description: affinity purification with mass spectrometry; lysate of stable His-Slc17a5 Raw264.7 cells (IP buffer plus 0.3% NP-40), anti-His affinity beads on a column, 4 °C for 3 h, eluted with His-tag peptide, SDS-PAGE, silver staining, LC-MS/MS.

Results are given in words; binding and its absence hold for the method and conditions named. Binding seen in cells or lysates may run through a third protein. These calls come from enrichment with a bait or labelling near it, and not all partners need be listed. Sequences can lack the tags named with a protein.

Take “Rel (c-Rel, proto-oncogene Rel) (from UniProt P15307 1-587)”: the binding entry was “binds”.
